In publication PMC6054149:
Results are given in words; binding and its absence hold for the method and conditions named. Binding seen in cells or lysates may run through a third protein. Some binding calls cover weakened binding; strength is not graded here. For part of these data: Sequences can lack the tags named with a protein. Values belong to the substance of their own block, whether it stands above or below them.

Chains of the proteins cited; added tags and fusions are not shown.
UniProt P42736: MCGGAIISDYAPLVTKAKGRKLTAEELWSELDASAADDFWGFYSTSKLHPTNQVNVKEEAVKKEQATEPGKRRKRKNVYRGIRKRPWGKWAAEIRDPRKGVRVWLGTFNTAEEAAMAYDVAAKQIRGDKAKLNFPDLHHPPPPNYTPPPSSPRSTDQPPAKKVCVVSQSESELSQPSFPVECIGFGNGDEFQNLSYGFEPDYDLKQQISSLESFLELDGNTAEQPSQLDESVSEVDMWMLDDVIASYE
UniProt Q8S307: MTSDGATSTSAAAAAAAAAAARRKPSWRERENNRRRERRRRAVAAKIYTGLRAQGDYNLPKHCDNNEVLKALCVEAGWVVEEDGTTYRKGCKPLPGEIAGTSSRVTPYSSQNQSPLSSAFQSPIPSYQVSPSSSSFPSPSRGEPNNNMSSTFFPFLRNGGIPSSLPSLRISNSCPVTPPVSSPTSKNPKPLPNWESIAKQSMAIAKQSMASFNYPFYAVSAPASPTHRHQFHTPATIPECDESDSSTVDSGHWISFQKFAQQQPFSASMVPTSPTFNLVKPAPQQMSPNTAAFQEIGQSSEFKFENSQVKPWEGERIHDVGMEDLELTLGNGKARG

How the values were obtained:
[1] = target: ERF72 fused to the C-terminal fragment of luciferase (c-LUC) (Arabidopsis thaliana) (UniProt P42736); assay: split reporter; firefly luciferase complementation imaging (LCI) in tobacco leaves infiltrated with Agrobacterium; nLUC and cLUC fusions
[2] = target: T1, ARF6-nLUC fusion protein (Arabidopsis thaliana) (UniProt Q9ZTX8); assay: as above
T1 sequence: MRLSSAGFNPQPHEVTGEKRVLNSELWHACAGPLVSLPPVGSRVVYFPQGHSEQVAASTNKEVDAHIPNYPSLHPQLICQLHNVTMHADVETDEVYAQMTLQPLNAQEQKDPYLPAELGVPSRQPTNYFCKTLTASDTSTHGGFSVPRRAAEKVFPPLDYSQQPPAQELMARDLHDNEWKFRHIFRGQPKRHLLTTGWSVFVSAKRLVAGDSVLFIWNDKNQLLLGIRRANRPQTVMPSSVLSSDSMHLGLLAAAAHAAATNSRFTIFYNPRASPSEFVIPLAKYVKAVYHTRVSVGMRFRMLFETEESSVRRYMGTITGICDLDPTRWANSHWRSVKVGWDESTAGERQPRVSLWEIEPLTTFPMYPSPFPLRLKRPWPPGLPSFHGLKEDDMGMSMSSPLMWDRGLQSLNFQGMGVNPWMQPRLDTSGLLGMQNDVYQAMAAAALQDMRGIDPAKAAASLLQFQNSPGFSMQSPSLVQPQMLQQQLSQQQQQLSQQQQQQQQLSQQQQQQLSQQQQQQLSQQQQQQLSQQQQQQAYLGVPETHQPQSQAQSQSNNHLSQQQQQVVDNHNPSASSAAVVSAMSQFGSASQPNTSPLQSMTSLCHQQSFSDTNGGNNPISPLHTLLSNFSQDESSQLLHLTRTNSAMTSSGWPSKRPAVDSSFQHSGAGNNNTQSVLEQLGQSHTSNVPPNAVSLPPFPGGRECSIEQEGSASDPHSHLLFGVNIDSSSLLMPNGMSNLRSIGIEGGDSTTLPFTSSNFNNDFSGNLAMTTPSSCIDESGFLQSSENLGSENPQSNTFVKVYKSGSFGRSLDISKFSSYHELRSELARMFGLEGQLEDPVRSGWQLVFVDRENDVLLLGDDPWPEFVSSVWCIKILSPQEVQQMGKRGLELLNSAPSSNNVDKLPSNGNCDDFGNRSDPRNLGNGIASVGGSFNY

[3] = target: MBP-ERF72 (Arabidopsis thaliana) (UniProt P42736); assay: pull-down; crude E. coli protein extracts mixed in binding buffer (10 mM Tris-HCl pH 7.5, 150 mM NaCl, 2 mM KCl, 0.1% Tween-20), 4 °C, 1 h; MBP or MBP-ERF72 as bait on amylose resin; BZR1-MYC as prey

binding [1]: binds
Substance: BZR1-nLUC (from UniProt Q8S307 1-336)

binding [2]: binds
Substance: ERF72 fused to the C-terminal fragment of luciferase (c-LUC) (from UniProt P42736 1-248)

binding [3]: binds
Substance: recombinant MYC-tagged BZR1 (from UniProt Q8S307 1-336)
